Screening data

From PubChem BioAssay record AID1224904 (Broad Institute, 2016).

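Selective DUX4 reporter inhibition in doxycycline-induced 293T-iDUX4 cells, scored as Gaussia percent activity minus Italica percent activity, after a 24-hour treatment. The test concentration is not given here. Percent difference between the Gaussia and Italica channels; more negative values mean more selective suppression of the DUX4 reporter, and higher values mean less activity.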

Values are in %. The controls that fix the scale are not given here. Common to all entries: measured here: selective DUX4 reporter inhibition. Part of the compounds only, not a random draw; the main read-out is not listed here.

With COc1ccccc1NC(=O)N(C)C[C@H]1OCc2ccccc2-c2c(n(C)c3ccccc23)C(=O)N([C@@H](C)CO)C[C@@H]1C the assay gave Gaussia minus Italica difference -5.197%. With COc1ccccc1CN1C[C@@H]2N[C@H](C1)[C@@H]2c1ccc(-c2cccnc2)cc1 the assay gave Gaussia minus Italica difference -23.37%. O=C(C[C@H]1CC[C@H]2[C@@H](COC[C@@H](O)CN2Cc2ccccc2F)O1)NCc1ccccc1F read Gaussia minus Italica difference -6.502%. C[C@H](CO)N1C[C@H](C)[C@H](CN(C)S(=O)(=O)c2cccs2)OCc2ccccc2-c2c(n(C)c3ccccc23)C1=O read Gaussia minus Italica difference -8.025%. N#Cc1cccc(-c2ccc([C@@H]3[C@H]4CN(C(=O)Nc5cccc(F)c5)CCCCN4[C@H]3CO)cc2)c1 read Gaussia minus Italica difference -1.411%. Result for N#Cc1cccc(-c2ccc3c(c2)[C@H]2[C@H](CCN2Cc2ccncc2)[C@H](CO)N3)c1 was Gaussia minus Italica difference 7.418%. O=C(C[C@@H]1C[C@H]2c3cc(NC(=O)c4ccc5c(c4)OCO5)ccc3O[C@H]2[C@@H](CO)O1)NCc1ccc(Oc2ccccc2)cc1 read Gaussia minus Italica difference -9.878%.

With O=C(c1ccccn1)N1CC[C@@H]2[C@H](CO)Nc3ccc(C#Cc4cccnc4)cc3[C@@H]21 the assay gave Gaussia minus Italica difference -15.18%. With COc1cccc(CN2C[C@@H]3N[C@H](C2)C3c2ccc(-c3ccccc3C)cc2)c1 (some centres unmarked) the assay gave Gaussia minus Italica difference -10.44%. With COc1ccccc1NC(=O)N1CC(=O)N2[C@@H](CO)[C@H](c3ccc(C#CCC(C)C)cc3)[C@@H]2C1 the assay gave Gaussia minus Italica difference 5.987%. For COCC(=O)N1CC2(CN(Cc3ccccc3Cl)C2)c2c([nH]c3cc(OC)ccc23)[C@H]1CO the result was Gaussia minus Italica difference -11.59%. Result for CCCC#Cc1ccc2c(c1)[C@@H]1[C@@H](CCN1S(=O)(=O)c1ccc(F)cc1)[C@@H](CO)N2C was Gaussia minus Italica difference -12.89%. O=C(C[C@H]1CC[C@@H]2[C@H](COC[C@@H](O)CN2Cc2ccc(Oc3ccccc3)cc2)O1)N1CCN(c2ccccc2)CC1 gave Gaussia minus Italica difference 4.349%. For COc1ccc2c3c([nH]c2c1)[C@@H](CO)N(Cc1ccccc1)CC31CN(C)C1 the result was Gaussia minus Italica difference -2.013%.

Result for COc1cccc(C#Cc2ccc([C@H]3[C@H]4CN(C(=O)Cc5ccccc5)CC(=O)N4[C@H]3CO)cc2)c1 was Gaussia minus Italica difference -6.265%. Result for O=C(NC1CCCCC1)N1C[C@@H]2N[C@H](C1)C2c1ccc(-c2cccc(F)c2)cc1 (some centres unmarked) was Gaussia minus Italica difference -5.772%. With COc1ccccc1NC(=O)N1CCCCN2[C@H](CO)[C@H](c3ccc(-c4cccc(F)c4)cc3)[C@@H]2C1 the assay gave Gaussia minus Italica difference -7.184%. CN1c2ccc(-c3cccc(C#N)c3)cc2[C@H]2[C@H](CCN2S(=O)(=O)c2cccc(F)c2)[C@H]1CO gave Gaussia minus Italica difference 2.366%. COc1ccccc1S(=O)(=O)N(C)C[C@@H]1OCc2ccccc2-c2c(n(C)c3ccccc23)C(=O)N([C@@H](C)CO)C[C@@H]1C read Gaussia minus Italica difference 12.43%. O=C(c1ccc2c(c1)OCO2)N1C[C@@H]2[C@H](c3ccccc31)[C@@H](CO)N2CC1CCCC1 read Gaussia minus Italica difference -4.305%. O=C(C[C@@H]1CC[C@@H]2[C@H](COC[C@H](O)CN2S(=O)(=O)c2ccccc2)O1)NCc1ccc(-c2ccccc2)cc1 gave Gaussia minus Italica difference -3.164%.

Result for O=C(C1CC1)N1CC[C@@H]2[C@H]1c1cc(Br)ccc1N[C@@H]2CO was Gaussia minus Italica difference 8.087%. COc1cccc(-c2ccc3c(c2)[C@H]2[C@H](CCN2C(=O)c2ccc(F)cc2)[C@H](CO)N3)c1 read Gaussia minus Italica difference 5.324%. O=C(C[C@H]1C[C@H]2c3cc(NC(=O)C4CCC4)ccc3O[C@H]2[C@H](CO)O1)NCCc1ccccc1 read Gaussia minus Italica difference -5.659%.

Repeated from the top, 2 entries:

structure,Gaussia minus Italica difference (%)
COc1ccccc1NC(=O)N(C)C[C@H]1OCc2ccccc2-c2c(n(C)c3ccccc23)C(=O)N([C@@H](C)CO)C[C@@H]1C,-5.197
COc1ccccc1CN1C[C@@H]2N[C@H](C1)[C@@H]2c1ccc(-c2cccnc2)cc1,-23.37